The entries are a selection whose mix differs from that of the whole data set. For part of these data: At the low end of the ranking the order means little. The list shows a part of the results. For part of these data: The source does not settle which construct or isoform was used.
How the values were obtained:
Assay in all cases: DAPPL (digital affinity profiling via proximity ligation, sequencing)
Settings in all cases: 10 mM Tris-HCl pH 7.5, 50 mM NaCl, 1 mM DTT, 4% glycerol, room temperature, 30 min; GST-TFs on glutathione beads, 16-mer random dsDNA library, 0.1% …; high values mean tight binding; double strand, one strand shown; scale: fold enrichment (6-mer frequency, TF over GST control)
ERG = molecular target: T1, ERG (UniProt P11308)
T1 sequence: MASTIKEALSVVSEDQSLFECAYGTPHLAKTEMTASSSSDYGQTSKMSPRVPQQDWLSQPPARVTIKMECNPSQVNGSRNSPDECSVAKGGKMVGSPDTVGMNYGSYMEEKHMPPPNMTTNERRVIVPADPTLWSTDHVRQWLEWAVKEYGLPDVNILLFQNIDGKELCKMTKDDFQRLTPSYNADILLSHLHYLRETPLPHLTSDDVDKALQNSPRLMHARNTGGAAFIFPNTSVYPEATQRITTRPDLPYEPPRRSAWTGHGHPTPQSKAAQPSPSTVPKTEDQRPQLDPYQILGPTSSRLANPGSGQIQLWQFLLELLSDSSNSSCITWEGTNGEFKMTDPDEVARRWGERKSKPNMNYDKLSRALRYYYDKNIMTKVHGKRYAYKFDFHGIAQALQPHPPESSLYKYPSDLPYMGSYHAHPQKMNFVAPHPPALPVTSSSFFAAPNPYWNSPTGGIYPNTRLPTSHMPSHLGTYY

Sequences of proteins named here, by UniProt entry; tags and fusion partners are left off. A change or cut given only in a name is not applied to a line headed by its entry.
UniProt P32519: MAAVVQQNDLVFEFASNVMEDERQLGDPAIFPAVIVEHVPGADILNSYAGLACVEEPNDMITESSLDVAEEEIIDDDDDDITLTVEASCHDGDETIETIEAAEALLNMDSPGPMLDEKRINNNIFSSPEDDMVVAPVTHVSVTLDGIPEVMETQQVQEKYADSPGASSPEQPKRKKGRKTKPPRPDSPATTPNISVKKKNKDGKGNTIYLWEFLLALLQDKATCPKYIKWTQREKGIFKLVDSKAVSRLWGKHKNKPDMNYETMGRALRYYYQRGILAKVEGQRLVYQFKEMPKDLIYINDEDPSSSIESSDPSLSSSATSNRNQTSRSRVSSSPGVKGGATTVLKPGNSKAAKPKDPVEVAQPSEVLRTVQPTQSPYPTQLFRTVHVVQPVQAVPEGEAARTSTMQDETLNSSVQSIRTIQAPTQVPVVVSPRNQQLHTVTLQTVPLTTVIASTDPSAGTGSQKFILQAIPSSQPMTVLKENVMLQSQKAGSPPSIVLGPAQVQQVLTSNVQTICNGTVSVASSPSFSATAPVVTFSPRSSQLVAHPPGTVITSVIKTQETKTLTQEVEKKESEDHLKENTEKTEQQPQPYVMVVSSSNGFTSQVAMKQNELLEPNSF
UniProt P50549: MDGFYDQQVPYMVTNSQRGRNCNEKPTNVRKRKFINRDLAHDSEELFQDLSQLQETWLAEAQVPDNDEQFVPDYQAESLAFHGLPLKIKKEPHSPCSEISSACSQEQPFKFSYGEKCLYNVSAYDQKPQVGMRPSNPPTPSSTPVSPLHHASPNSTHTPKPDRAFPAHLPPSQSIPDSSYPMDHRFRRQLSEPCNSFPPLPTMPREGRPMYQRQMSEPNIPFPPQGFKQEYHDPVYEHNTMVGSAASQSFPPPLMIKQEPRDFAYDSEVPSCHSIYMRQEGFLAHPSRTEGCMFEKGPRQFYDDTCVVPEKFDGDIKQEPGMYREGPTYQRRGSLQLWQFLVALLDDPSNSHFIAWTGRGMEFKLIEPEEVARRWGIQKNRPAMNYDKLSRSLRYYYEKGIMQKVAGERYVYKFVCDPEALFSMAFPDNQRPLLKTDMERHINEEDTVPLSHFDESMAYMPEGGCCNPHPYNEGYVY

ELF1 = ELF1 (UniProt P32519)
ELK4 = molecular target: T2, ELK4 (UniProt P28324-2)
T2 sequence: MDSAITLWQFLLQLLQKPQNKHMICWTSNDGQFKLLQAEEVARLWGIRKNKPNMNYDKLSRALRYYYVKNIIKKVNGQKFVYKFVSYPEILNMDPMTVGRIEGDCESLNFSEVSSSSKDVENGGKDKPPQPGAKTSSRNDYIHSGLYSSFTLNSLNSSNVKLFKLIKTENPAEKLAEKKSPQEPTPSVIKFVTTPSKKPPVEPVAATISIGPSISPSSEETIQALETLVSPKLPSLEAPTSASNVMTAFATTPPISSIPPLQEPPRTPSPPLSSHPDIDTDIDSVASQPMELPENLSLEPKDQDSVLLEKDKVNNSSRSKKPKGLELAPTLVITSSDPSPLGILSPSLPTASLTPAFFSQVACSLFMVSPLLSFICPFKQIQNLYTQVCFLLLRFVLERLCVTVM

ETV4 = molecular target: T3, ETV4 (UniProt P43268)
T3 sequence: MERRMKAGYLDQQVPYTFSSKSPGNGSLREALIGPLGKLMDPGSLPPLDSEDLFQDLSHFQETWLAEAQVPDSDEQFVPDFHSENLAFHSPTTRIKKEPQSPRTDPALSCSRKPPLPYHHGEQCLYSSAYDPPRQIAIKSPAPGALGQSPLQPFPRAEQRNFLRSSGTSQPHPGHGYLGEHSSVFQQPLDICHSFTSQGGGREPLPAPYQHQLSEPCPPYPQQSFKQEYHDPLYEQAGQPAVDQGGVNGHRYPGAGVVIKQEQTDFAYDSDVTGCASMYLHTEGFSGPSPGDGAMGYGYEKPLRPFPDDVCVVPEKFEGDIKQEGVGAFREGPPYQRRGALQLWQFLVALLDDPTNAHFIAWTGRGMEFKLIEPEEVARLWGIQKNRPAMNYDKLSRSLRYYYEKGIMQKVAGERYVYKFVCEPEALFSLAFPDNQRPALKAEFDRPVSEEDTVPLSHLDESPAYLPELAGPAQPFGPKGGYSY

ETV1 = ETV1 (UniProt P50549)
ERF = molecular target: T4, ERF (UniProt P50548)
T4 sequence: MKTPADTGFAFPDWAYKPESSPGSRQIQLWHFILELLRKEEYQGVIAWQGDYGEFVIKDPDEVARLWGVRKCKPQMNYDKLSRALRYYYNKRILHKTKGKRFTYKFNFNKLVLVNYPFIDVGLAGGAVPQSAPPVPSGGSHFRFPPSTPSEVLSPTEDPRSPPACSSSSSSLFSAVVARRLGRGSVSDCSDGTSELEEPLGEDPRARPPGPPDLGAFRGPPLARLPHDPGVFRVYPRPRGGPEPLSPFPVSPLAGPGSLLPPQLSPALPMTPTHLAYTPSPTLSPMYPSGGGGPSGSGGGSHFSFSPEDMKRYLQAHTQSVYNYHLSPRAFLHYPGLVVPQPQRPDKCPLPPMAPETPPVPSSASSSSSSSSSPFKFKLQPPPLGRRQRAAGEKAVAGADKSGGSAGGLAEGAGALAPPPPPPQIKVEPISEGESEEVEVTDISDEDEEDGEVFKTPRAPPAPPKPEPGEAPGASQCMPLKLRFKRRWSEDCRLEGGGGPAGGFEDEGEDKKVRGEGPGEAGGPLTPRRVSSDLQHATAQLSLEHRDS

Sequence | binding signal (ERG) | binding signal (ELF1) | binding signal (ELK4) | binding signal (ETV4) | binding signal (ETV1) | binding signal (ERF)
GGAACC | 0.846 | 0.796 | 0.831 | 0.83 | 0.841 | 0.772
GAGAAG | 0.663 | 0.695 | 0.679 | 0.726 | 0.742 | 0.725
TCGCAG | 0.918 | 0.856 | 0.934 | 0.887 | 0.97 | 0.849
GCGGGA | 0.38 | 0.35 | 0.364 | 0.347 | 0.386 | 0.347
AGTTAG | 0.776 | 0.848 | 0.768 | 0.764 | 0.788 | 0.804
ACACGT | 0.806 | 0.785 | 0.747 | 0.789 | 0.784 | 0.796
ATGGAG | 0.556 | 0.541 | 0.503 | 0.572 | 0.587 | 0.618
TGCGGG | 0.744 | 0.869 | 0.725 | 0.756 | 0.798 | 0.784
GTCGAA | 0.634 | 0.631 | 0.717 | 0.618 | 0.674 | 0.626
GGGCAC | 0.792 | 0.802 | 0.853 | 0.808 | 0.74 | 0.764
AGGGCA | 0.857 | 0.787 | 0.786 | 0.881 | 0.844 | 0.848
GAGCGC | 0.586 | 0.617 | 0.581 | 0.552 | 0.572 | 0.634
GCGTGT | 0.535 | 0.547 | 0.578 | 0.552 | 0.598 | 0.54
AAGAGA | 0.865 | 0.886 | 0.758 | 0.773 | 0.815 | 0.867
CAAAGG | 0.804 | 0.799 | 0.836 | 0.855 | 0.802 | 0.88
GCCGAG | 0.6 | 0.592 | 0.65 | 0.687 | 0.608 | 0.603
CGGGTA | 0.846 | 0.846 | 0.929 | 0.815 | 0.8 | 0.829
GGAGCT | 0.647 | 0.593 | 0.552 | 0.594 | 0.645 | 0.617
GAGGAC | 0.583 | 0.658 | 0.543 | 0.66 | 0.561 | 0.553
GCCAGT | 0.317 | 0.331 | 0.322 | 0.293 | 0.314 | 0.289

Sequence | binding signal (ERG) | binding signal (ELF1) | binding signal (ELK4) | binding signal (ETV4) | binding signal (ETV1) | binding signal (ERF)
GACACC | 0.934 | 0.929 | 0.886 | 0.899 | 0.869 | 0.97
CTGAGT | 0.612 | 0.61 | 0.632 | 0.615 | 0.625 | 0.582
GCGAGG | 0.673 | 0.629 | 0.573 | 0.591 | 0.629 | 0.618
GCGTGG | 0.57 | 0.518 | 0.627 | 0.516 | 0.558 | 0.548
TGTGTA | 0.838 | 0.819 | 0.881 | 0.925 | 0.857 | 0.979
ACGGTG | 0.495 | 0.554 | 0.524 | 0.54 | 0.485 | 0.502
GTAGGT | 0.889 | 0.818 | 0.698 | 0.794 | 0.773 | 0.902
CGCATC | 0.965 | 0.915 | 0.764 | 0.917 | 0.883 | 0.829
TCGGGT | 0.607 | 0.558 | 0.54 | 0.594 | 0.567 | 0.626
GGATCG | 0.611 | 0.546 | 0.611 | 0.565 | 0.659 | 0.594
TCGGTT | 0.777 | 0.862 | 0.926 | 0.844 | 0.882 | 0.839
CACGTG | 0.612 | 0.615 | 0.672 | 0.625 | 0.621 | 0.662
GACTCA | 0.948 | 0.936 | 0.868 | 0.986 | 0.907 | 0.906
AGGCGG | 0.289 | 0.237 | 0.24 | 0.241 | 0.26 | 0.235
CGCAAG | 0.799 | 0.847 | 0.849 | 0.794 | 0.782 | 0.803
CCGTGG | 0.409 | 0.381 | 0.54 | 0.462 | 0.409 | 0.453
TGTGAG | 0.321 | 0.335 | 0.38 | 0.375 | 0.309 | 0.328
GGAACG | 0.597 | 0.603 | 0.617 | 0.588 | 0.612 | 0.54
CAGTAC | 0.822 | 0.839 | 0.812 | 0.86 | 0.837 | 0.81
CGGGAC | 0.576 | 0.569 | 0.53 | 0.557 | 0.547 | 0.515

Sequence | binding signal (ERG) | binding signal (ELF1) | binding signal (ELK4) | binding signal (ETV4) | binding signal (ETV1) | binding signal (ERF)
CATGTC | 0.837 | 0.833 | 0.811 | 0.837 | 0.833 | 0.875
AGTCCA | 0.737 | 0.689 | 0.693 | 0.716 | 0.708 | 0.614
GACTGT | 0.436 | 0.461 | 0.484 | 0.454 | 0.433 | 0.417
TTCGTG | 0.798 | 0.858 | 0.896 | 0.916 | 0.86 | 0.916
GTAGAC | 0.737 | 0.766 | 0.765 | 0.801 | 0.794 | 0.813
ACCGTA | 0.892 | 0.933 | 0.957 | 0.846 | 0.848 | 0.943
AGGACG | 0.496 | 0.473 | 0.463 | 0.477 | 0.45 | 0.443
GTCAGT | 0.595 | 0.656 | 0.644 | 0.572 | 0.654 | 0.587
GTGATA | 0.658 | 0.68 | 0.711 | 0.637 | 0.622 | 0.656
CGGCCA | 0.801 | 0.797 | 0.858 | 0.798 | 0.845 | 0.816
ATGTGA | 0.633 | 0.659 | 0.665 | 0.647 | 0.658 | 0.617
GCAGTC | 0.478 | 0.516 | 0.451 | 0.458 | 0.457 | 0.525
AGACAA | 0.804 | 0.803 | 0.85 | 0.799 | 0.772 | 0.878
GTGCGA | 0.849 | 0.829 | 0.956 | 0.829 | 0.927 | 0.848
CAGGCT | 0.79 | 0.865 | 0.848 | 0.866 | 0.82 | 0.832
GGAGGC | 0.275 | 0.238 | 0.255 | 0.244 | 0.259 | 0.231
CGTGTT | 0.799 | 0.8 | 0.969 | 0.829 | 0.879 | 0.965
GGTGTG | 0.747 | 0.684 | 0.692 | 0.713 | 0.741 | 0.656
AGGAGT | 0.387 | 0.356 | 0.422 | 0.346 | 0.354 | 0.383
GGAGTC | 0.249 | 0.218 | 0.239 | 0.212 | 0.225 | 0.218

Full records as entered above:
TTCGTG as listed: binding signal (ERG) = 0.798; binding signal (ELF1) = 0.858; binding signal (ELK4) = 0.896; binding signal (ETV4) = 0.916; binding signal (ETV1) = 0.86; binding signal (ERF) = 0.916
GTGATA as listed: binding signal (ERG) = 0.658; binding signal (ELF1) = 0.68; binding signal (ELK4) = 0.711; binding signal (ETV4) = 0.637; binding signal (ETV1) = 0.622; binding signal (ERF) = 0.656
GGAGGC as listed: binding signal (ERG) = 0.275; binding signal (ELF1) = 0.238; binding signal (ELK4) = 0.255; binding signal (ETV4) = 0.244; binding signal (ETV1) = 0.259; binding signal (ERF) = 0.231
GCAGTC as listed: binding signal (ERG) = 0.478; binding signal (ELF1) = 0.516; binding signal (ELK4) = 0.451; binding signal (ETV4) = 0.458; binding signal (ETV1) = 0.457; binding signal (ERF) = 0.525

Source: publication PMC7862700
